Reference: the supplement of paper PMC12823440, “Inhibitors supercharge kinase turnover through native proteolytic circuits” (Nature, 2025)
Where a name gives a salt, the structure may show the parent alone. The list shows a part of the results. Hit calls seldom repeat between salt and free forms of one compound.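 Kinases, fused to nanoluciferase, were expressed in K562 cells; luminescence was measured every 4 h from 2 to 18 h as percent of control (DMSO = 100%, positive control = 0%). A time point is decreased if signal falls significantly (2 sigma). Hits were called by the authors by a rule that is not shown; the count of time points alone does not decide it.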

Sequences of proteins named here, by UniProt entry; tags and fusion partners are left off. A change or cut given only in a name is not applied to a line headed by its entry.
UniProt Q9Y616: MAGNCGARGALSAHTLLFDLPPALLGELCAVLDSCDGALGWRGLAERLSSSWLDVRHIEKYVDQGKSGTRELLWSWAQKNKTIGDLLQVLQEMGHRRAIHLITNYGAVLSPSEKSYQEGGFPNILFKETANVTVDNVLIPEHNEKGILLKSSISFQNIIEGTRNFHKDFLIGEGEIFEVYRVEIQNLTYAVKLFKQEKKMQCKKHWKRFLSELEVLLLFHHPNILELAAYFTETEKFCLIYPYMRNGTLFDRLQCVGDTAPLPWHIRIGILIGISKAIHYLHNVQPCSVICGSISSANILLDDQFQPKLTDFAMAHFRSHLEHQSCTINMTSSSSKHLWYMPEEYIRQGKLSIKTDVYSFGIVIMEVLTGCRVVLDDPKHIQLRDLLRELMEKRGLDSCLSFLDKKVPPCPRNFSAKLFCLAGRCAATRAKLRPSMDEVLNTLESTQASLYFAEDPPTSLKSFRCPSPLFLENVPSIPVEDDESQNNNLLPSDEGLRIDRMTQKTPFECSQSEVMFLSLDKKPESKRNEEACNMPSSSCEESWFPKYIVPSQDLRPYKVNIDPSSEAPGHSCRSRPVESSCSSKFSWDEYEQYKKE
UniProt P23458: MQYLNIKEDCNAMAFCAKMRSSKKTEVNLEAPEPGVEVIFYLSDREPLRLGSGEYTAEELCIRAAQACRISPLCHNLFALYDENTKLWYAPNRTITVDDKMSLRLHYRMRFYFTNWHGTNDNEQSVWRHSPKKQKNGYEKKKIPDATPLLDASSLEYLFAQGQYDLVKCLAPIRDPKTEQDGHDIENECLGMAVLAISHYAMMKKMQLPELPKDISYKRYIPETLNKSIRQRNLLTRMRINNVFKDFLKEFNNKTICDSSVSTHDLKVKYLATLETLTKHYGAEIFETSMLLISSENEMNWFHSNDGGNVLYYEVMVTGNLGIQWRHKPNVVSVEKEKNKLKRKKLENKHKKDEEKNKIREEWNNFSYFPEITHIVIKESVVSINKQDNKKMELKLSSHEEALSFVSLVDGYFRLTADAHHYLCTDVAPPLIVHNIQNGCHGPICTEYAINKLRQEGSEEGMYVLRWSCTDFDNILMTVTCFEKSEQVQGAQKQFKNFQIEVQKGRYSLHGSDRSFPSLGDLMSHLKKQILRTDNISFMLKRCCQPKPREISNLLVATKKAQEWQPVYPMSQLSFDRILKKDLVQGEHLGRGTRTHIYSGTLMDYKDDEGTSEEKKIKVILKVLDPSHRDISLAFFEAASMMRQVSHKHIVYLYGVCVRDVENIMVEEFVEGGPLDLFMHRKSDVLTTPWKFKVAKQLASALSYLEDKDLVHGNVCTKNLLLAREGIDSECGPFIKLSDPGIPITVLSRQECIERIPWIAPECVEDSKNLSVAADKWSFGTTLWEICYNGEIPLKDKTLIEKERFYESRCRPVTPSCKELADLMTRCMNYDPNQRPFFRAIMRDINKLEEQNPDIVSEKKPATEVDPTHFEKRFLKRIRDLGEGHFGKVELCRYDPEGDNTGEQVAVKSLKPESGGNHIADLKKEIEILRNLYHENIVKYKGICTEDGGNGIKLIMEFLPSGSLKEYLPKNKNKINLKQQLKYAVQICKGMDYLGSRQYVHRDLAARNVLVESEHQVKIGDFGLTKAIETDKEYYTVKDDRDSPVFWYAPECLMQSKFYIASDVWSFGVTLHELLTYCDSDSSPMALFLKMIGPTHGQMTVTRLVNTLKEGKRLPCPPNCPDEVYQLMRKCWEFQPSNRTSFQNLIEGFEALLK
UniProt P06239: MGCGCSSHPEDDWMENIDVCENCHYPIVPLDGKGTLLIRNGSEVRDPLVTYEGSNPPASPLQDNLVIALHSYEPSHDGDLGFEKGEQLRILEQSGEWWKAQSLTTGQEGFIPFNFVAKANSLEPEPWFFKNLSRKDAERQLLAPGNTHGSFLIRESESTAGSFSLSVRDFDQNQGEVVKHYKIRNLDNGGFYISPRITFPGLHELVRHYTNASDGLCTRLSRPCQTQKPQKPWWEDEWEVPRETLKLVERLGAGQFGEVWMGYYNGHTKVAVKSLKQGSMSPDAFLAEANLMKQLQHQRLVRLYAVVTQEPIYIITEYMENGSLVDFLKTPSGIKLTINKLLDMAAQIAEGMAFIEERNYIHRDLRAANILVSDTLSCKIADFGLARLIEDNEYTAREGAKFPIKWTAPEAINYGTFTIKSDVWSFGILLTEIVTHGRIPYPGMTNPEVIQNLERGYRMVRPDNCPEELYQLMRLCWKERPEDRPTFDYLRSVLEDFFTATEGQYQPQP
UniProt P53667: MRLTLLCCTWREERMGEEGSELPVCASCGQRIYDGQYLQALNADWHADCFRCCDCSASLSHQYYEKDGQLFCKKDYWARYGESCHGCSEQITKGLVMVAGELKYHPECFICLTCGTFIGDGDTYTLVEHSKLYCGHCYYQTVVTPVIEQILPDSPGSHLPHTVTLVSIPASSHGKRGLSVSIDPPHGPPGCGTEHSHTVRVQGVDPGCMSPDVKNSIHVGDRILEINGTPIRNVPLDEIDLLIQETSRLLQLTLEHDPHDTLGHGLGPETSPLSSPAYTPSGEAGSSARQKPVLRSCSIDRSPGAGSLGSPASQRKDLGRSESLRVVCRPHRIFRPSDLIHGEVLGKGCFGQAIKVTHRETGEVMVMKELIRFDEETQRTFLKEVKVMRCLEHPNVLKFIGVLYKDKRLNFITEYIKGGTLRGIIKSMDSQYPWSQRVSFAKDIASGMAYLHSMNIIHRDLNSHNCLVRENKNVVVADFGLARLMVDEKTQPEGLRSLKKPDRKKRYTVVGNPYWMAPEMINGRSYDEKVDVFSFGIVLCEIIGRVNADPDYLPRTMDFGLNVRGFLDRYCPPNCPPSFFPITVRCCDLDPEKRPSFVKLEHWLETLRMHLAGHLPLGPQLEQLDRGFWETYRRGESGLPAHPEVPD
UniProt P53671: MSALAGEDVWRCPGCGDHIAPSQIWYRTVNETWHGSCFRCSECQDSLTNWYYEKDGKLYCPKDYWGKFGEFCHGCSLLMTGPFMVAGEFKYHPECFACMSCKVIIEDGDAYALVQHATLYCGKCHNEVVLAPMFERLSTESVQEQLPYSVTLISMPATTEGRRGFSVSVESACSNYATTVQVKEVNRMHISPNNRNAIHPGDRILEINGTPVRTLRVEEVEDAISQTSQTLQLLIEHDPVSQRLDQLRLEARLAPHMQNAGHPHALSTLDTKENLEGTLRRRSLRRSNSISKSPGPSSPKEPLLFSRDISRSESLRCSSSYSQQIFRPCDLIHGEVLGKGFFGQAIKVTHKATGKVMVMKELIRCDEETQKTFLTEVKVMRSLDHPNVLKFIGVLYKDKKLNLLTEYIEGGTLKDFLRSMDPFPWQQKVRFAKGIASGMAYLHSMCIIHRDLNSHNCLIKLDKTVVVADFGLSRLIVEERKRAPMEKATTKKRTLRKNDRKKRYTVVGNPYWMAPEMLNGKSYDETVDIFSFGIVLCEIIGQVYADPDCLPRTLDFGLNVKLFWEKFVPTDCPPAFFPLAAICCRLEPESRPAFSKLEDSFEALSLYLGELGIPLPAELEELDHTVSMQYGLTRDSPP
UniProt Q8IWU2: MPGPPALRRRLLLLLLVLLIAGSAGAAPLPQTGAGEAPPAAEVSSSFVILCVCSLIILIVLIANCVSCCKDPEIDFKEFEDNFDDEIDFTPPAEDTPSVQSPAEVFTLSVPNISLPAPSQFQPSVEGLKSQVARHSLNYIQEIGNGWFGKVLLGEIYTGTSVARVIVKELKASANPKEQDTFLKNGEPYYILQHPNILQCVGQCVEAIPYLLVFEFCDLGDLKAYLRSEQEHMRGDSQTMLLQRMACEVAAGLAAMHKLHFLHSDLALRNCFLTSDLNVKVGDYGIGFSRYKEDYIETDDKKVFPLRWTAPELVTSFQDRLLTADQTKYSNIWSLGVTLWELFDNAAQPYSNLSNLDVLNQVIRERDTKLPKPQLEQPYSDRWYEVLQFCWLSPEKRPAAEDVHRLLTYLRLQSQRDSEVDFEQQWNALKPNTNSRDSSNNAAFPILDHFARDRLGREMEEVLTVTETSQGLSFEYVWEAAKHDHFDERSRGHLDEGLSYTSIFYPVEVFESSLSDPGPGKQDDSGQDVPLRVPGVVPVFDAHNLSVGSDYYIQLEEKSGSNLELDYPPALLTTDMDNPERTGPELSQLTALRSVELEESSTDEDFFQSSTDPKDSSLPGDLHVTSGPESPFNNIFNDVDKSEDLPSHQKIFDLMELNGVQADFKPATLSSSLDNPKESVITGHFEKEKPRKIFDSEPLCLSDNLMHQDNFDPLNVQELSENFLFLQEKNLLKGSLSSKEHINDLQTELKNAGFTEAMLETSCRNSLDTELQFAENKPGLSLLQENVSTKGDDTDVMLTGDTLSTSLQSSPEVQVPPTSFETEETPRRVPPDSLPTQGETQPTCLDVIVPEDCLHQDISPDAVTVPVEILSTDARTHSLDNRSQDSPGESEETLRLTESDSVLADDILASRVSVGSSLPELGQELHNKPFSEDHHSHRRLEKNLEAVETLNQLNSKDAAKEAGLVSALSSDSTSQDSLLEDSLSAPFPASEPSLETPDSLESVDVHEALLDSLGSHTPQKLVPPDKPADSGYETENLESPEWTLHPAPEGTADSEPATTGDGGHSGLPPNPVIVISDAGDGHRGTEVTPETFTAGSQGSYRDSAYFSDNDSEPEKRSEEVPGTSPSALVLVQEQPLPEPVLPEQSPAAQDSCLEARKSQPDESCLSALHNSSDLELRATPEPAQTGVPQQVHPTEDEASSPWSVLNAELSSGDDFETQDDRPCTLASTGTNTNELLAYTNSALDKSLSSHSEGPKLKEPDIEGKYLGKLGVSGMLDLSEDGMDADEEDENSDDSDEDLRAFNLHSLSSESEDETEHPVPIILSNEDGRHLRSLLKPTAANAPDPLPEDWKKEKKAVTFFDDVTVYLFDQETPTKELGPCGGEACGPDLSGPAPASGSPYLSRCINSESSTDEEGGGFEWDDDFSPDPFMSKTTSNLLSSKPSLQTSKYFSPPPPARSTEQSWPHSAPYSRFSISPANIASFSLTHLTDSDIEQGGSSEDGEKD
UniProt P07948: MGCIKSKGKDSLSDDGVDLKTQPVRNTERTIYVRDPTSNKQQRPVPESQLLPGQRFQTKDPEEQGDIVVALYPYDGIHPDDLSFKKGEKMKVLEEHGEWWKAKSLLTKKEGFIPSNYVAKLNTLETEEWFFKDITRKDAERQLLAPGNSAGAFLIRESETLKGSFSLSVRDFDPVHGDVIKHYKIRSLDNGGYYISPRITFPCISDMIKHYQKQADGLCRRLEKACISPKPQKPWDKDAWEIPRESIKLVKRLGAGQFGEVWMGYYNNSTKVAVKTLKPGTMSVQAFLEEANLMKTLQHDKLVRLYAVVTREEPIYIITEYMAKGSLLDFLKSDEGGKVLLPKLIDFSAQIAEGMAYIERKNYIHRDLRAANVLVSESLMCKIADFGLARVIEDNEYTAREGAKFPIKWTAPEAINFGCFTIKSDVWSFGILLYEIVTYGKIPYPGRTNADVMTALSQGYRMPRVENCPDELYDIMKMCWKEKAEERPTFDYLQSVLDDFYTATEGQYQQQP
UniProt Q12851: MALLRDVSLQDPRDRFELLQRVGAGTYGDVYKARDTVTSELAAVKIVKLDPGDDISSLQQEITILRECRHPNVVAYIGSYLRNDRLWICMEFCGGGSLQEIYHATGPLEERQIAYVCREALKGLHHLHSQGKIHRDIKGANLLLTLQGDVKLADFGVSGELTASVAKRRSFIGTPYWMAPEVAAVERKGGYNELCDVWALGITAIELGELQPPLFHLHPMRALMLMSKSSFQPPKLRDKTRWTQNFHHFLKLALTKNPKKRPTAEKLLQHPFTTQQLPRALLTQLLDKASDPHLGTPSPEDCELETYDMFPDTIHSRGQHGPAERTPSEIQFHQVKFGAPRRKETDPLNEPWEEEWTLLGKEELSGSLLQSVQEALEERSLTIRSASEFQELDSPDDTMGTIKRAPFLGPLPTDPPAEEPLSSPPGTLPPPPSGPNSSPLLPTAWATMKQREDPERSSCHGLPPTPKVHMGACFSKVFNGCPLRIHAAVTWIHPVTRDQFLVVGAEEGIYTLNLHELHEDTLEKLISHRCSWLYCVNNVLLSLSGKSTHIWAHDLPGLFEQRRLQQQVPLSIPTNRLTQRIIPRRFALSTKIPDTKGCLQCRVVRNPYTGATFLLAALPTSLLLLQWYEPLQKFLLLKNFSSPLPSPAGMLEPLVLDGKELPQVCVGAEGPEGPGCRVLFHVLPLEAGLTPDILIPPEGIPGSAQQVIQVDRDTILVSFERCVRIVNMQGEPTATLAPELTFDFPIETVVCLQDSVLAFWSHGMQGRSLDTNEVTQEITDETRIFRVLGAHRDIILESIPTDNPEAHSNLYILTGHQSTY

Legend:
Assay in all cases: kinase-Nluc reporter destabilization hit call (1 = scored as downregulated) (binary); higher = compound decreases kinase abundance
Conditions in all cases: K562; 2-18 h
IRAK3 = IRAK3 (UniProt Q9Y616)
JAK1 = JAK1 (UniProt P23458)
LCK = LCK (UniProt P06239)
LIMK1 = LIMK1 (UniProt P53667)
LIMK2 = LIMK2 (UniProt P53671)
LMTK2 = LMTK2 (UniProt Q8IWU2)
LYN = LYN (UniProt P07948)
MAP2K1 = MAP2K1 (UniProt Q02750)
MAP2K2 = MAP2K2 (UniProt P36507)
MAP4K2 = MAP4K2 (UniProt Q12851)

Measured: kinase-Nluc reporter destabilization hit call

Nc1cc(C(F)(F)F)c(-c2nc(N3CCOCC3)nc(N3CCOCC3)n2)cn1 [Bimiralisib] (10 µM)
inactive: IRAK3 = 0 | JAK1 = 0 | LCK 0 | LIMK1 = 0 | LIMK2 = 0 | LMTK2 = 0 | LYN 0 | MAP2K1 = 0 | MAP2K2 = 0 | MAP4K2 = 0

CCc1cccc(CC)c1NC(=O)c1nn(C)c2c1CCc1cnc(Nc3ccc(C(=O)NC4CCN(C)CC4)cc3OC(F)(F)F)nc1-2 (2 µM)
inactive: IRAK3 = 0 | JAK1 = 0 | LCK 0 | LIMK1 = 0 | LIMK2 = 0 | LMTK2 = 0 | LYN 0 | MAP2K1 = 0 | MAP2K2 = 0 | MAP4K2 = 0

O=C1NC(=O)C(=Cc2ccc3c(c2)OCO3)S1 (10 µM)
inactive: IRAK3 = 0 | JAK1 = 0 | LCK 0 | LIMK1 = 0 | LIMK2 = 0 | LMTK2 = 0 | LYN 0 | MAP2K1 = 0 | MAP2K2 = 0 | MAP4K2 = 0

Nc1[nH]c(=O)nc2c1ncn2[C@@H]1O[C@H](CO)[C@@H](O)[C@H]1O [Crotonoside] (10 µM)
inactive: IRAK3 = 0 | JAK1 = 0 | LCK 0 | LIMK1 = 0 | LIMK2 = 0 | LMTK2 = 0 | LYN 0 | MAP2K1 = 0 | MAP2K2 = 0 | MAP4K2 = 0

Cc1ccc(-c2ccc3c(ccc4sc5c(c43)NC[C@@H](C)NC5=O)n2)cn1 (10 µM)
inactive: IRAK3 = 0 | JAK1 = 0 | LCK 0 | LIMK1 = 0 | LIMK2 = 0 | LMTK2 = 0 | LYN 0 | MAP2K1 = 0 | MAP2K2 = 0 | MAP4K2 = 0

CC(C)n1cnc2c(Nc3cccc(Cl)c3)nc(NCCO)nc21 (10 µM)
inactive: IRAK3 = 0 | JAK1 = 0 | LCK 0 | LIMK1 = 0 | LIMK2 = 0 | LMTK2 = 0 | LYN 0 | MAP2K1 = 0 | MAP2K2 = 0 | MAP4K2 = 0

CC(C)N(C)c1nc2cc(C(=O)O)ccc2nc1-c1ccc(F)cc1 (10 µM)
inactive: IRAK3 = 0 | JAK1 = 0 | LCK 0 | LIMK1 = 0 | LIMK2 = 0 | LMTK2 = 0 | LYN 0 | MAP2K1 = 0 | MAP2K2 = 0 | MAP4K2 = 0

O=S(=O)(c1cccc2cnccc12)N1CCNCC1 (10 µM)
inactive: IRAK3 = 0 | JAK1 = 0 | LCK 0 | LIMK1 = 0 | LIMK2 = 0 | LMTK2 = 0 | LYN 0 | MAP2K1 = 0 | MAP2K2 = 0 | MAP4K2 = 0

C[C@@H]1COCCN1c1cc(C2([S@](C)(=N)=O)CC2)nc(-c2cc[nH]c3nccc2-3)n1 [Ceralasertib] (2.5 µM)
inactive: IRAK3 = 0 | JAK1 = 0 | LCK 0 | LIMK1 = 0 | LIMK2 = 0 | LMTK2 = 0 | LYN 0 | MAP2K1 = 0 | MAP2K2 = 0 | MAP4K2 = 0

N=C(N)NC(=N)NCCc1ccccc1 [Phenformin (hydrochloride)] (10 µM)
inactive: IRAK3 = 0 | JAK1 = 0 | LCK 0 | LIMK1 = 0 | LIMK2 = 0 | LMTK2 = 0 | LYN 0 | MAP2K1 = 0 | MAP2K2 = 0 | MAP4K2 = 0

CC1=C(C(=O)Nc2ccc3[nH]ncc3c2)C(c2ccc(F)cc2)NC(=O)N1 (stereo not given) (10 µM)
inactive: IRAK3 = 0 | JAK1 = 0 | LCK 0 | LIMK1 = 0 | LIMK2 = 0 | LMTK2 = 0 | LYN 0 | MAP2K1 = 0 | MAP2K2 = 0 | MAP4K2 = 0

CN(C)Cc1cccc(N=C(c2ccccc2)c2c(O)[nH]c3cc(C(=O)N(C)C)ccc23)c1 (10 µM)
inactive: IRAK3 = 0 | JAK1 = 0 | LCK 0 | LIMK1 = 0 | LIMK2 = 0 | LMTK2 = 0 | LYN 0 | MAP2K1 = 0 | MAP2K2 = 0 | MAP4K2 = 0

Cc1cc2ncc(-c3ccccc3)nc2cc1C (10 µM)
inactive: IRAK3 = 0 | JAK1 = 0 | LCK 0 | LIMK1 = 0 | LIMK2 = 0 | LMTK2 = 0 | LYN 0 | MAP2K1 = 0 | MAP2K2 = 0 | MAP4K2 = 0

O[C@H]1CC[C@H](Nc2ncc3nc(Nc4c(F)cc(F)cc4F)n([C@H]4CCOC4)c3n2)CC1 [Tanzisertib] (10 µM)
inactive: IRAK3 = 0 | JAK1 = 0 | LCK 0 | LIMK1 = 0 | LIMK2 = 0 | LMTK2 = 0 | LYN 0 | MAP2K1 = 0 | MAP2K2 = 0 | MAP4K2 = 0

C[C@H]1Cc2ccccc2N1C(=O)Cc1nc(N2CCOCC2)cc(=O)[nH]1 (2.5 µM)
inactive: IRAK3 = 0 | JAK1 = 0 | LCK 0 | LIMK1 = 0 | LIMK2 = 0 | LMTK2 = 0 | LYN 0 | MAP2K1 = 0 | MAP2K2 = 0 | MAP4K2 = 0

CC(C)C[C@H](NC(=O)[C@H](CCCCN)NC(=O)[C@H](CO)NC(=O)[C@@H](N)CC(C)C)C(N)=O [LSKL, Inhibitor of Thrombospondin (TSP-1) (TFA)] (10 µM)
inactive: IRAK3 = 0 | JAK1 = 0 | LCK 0 | LIMK1 = 0 | LIMK2 = 0 | LMTK2 = 0 | LYN 0 | MAP2K1 = 0 | MAP2K2 = 0 | MAP4K2 = 0

CN1C(=O)NC(Cc2c[nH]c3c(Cl)cccc23)C1=O (racemic) [Necrostatin 2 (racemate)] (10 µM)
inactive: IRAK3 = 0 | JAK1 = 0 | LCK 0 | LIMK1 = 0 | LIMK2 = 0 | LMTK2 = 0 | LYN 0 | MAP2K1 = 0 | MAP2K2 = 0 | MAP4K2 = 0

Cc1ccc(-c2ncn(-c3ccc(Nc4nccc(-c5cccc(N6CCOCC6)c5)n4)cc3)n2)cn1 (10 µM)
inactive: IRAK3 = 0 | JAK1 = 0 | LCK 0 | LIMK1 = 0 | LIMK2 = 0 | LMTK2 = 0 | LYN 0 | MAP2K1 = 0 | MAP2K2 = 0 | MAP4K2 = 0

CCCCCCCC/C=C\CCCCCCCC(=O)NCC(=O)O [N-Oleoyl glycine] (10 µM)
inactive: IRAK3 = 0 | JAK1 = 0 | LCK 0 | LIMK1 = 0 | LIMK2 = 0 | LMTK2 = 0 | LYN 0 | MAP2K1 = 0 | MAP2K2 = 0 | MAP4K2 = 0

COc1c(O)cc2oc3cc(O)c(CC=C(C)C)c(O)c3c(=O)c2c1CCC(C)(C)O [Garcinone D] (2.5 µM)
inactive: IRAK3 = 0 | JAK1 = 0 | LCK 0 | LIMK1 = 0 | LIMK2 = 0 | LMTK2 = 0 | LYN 0 | MAP2K1 = 0 | MAP2K2 = 0 | MAP4K2 = 0

COc1ccc(CCNc2ncc3c(=O)n(-c4cccc(F)c4)c(=O)[nH]c3n2)cc1OC (2 µM)
inactive: IRAK3 = 0 | JAK1 = 0 | LCK 0 | LIMK1 = 0 | LIMK2 = 0 | LMTK2 = 0 | LYN 0 | MAP2K1 = 0 | MAP2K2 = 0 | MAP4K2 = 0

O=C(Nc1cccc(-c2nncn2C2CC2)c1)c1cc(-n2cnc(C3CC3)c2)ccn1 (10 µM)
inactive: IRAK3 = 0 | JAK1 = 0 | LCK 0 | LIMK1 = 0 | LIMK2 = 0 | LMTK2 = 0 | LYN 0 | MAP2K1 = 0 | MAP2K2 = 0 | MAP4K2 = 0

CC(CCc1ccccn1)(CCc1ccccn1)C(=O)c1ccccc1 (10 µM)
inactive: IRAK3 = 0 | JAK1 = 0 | LCK 0 | LIMK1 = 0 | LIMK2 = 0 | LMTK2 = 0 | LYN 0 | MAP2K1 = 0 | MAP2K2 = 0 | MAP4K2 = 0

COc1cc(-c2cc(-c3cc(OC)c(OC)c(OC)c3)cc(C(F)P(=O)(OCOC(=O)C(C)(C)C)OCOC(=O)C(C)(C)C)c2)cc(OC)c1OC (stereo not given) [Stafia-1-dipivaloyloxymethyl ester] (2.5 µM)
inactive: IRAK3 = 0 | JAK1 = 0 | LCK 0 | LIMK1 = 0 | LIMK2 = 0 | LMTK2 = 0 | LYN 0 | MAP2K1 = 0 | MAP2K2 = 0 | MAP4K2 = 0

Cc1ccc(-c2nn(C(C)(C)CNC(=O)c3ccncc3)c3ncnc(N)c23)cc1 (2.5 µM)
inactive: IRAK3 = 0 | JAK1 = 0 | LCK 0 | LIMK1 = 0 | LIMK2 = 0 | LMTK2 = 0 | LYN 0 | MAP2K1 = 0 | MAP2K2 = 0 | MAP4K2 = 0

CCCNC(=O)c1cn2ncnc(Nc3cc(C(=O)NC4CC4)ccc3C)c2c1C (10 µM)
inactive: IRAK3 = 0 | JAK1 = 0 | LCK 0 | LIMK1 = 0 | LIMK2 = 0 | LMTK2 = 0 | LYN 0 | MAP2K1 = 0 | MAP2K2 = 0 | MAP4K2 = 0

COc1ccc2c(c1)c(C1=C(c3c[nH]c4ccccc34)C(=O)NC1=O)cn2CCCN(C)C (10 µM)
inactive: IRAK3 = 0 | JAK1 = 0 | LCK 0 | LIMK1 = 0 | LIMK2 = 0 | LMTK2 = 0 | LYN 0 | MAP2K1 = 0 | MAP2K2 = 0 | MAP4K2 = 0

O=C(Nc1ccc(Cl)cc1)C1CCCN(C(=O)c2cccc(-c3ccco3)c2)C1 (stereo not given) (2.5 µM)
inactive: IRAK3 = 0 | JAK1 = 0 | LCK 0 | LIMK1 = 0 | LIMK2 = 0 | LMTK2 = 0 | LYN 0 | MAP2K1 = 0 | MAP2K2 = 0 | MAP4K2 = 0

COc1cc(N2CCC(N3CCN(C)CC3)CC2)ccc1Nc1nc2c(c(Nc3ccccc3S(=O)(=O)NC(C)C)n1)CCN2 [Conteltinib] (10 µM)
inactive: IRAK3 = 0 | JAK1 = 0 | LCK 0 | LIMK1 = 0 | LIMK2 = 0 | LMTK2 = 0 | LYN 0 | MAP2K1 = 0 | MAP2K2 = 0 | MAP4K2 = 0

CC(=O)Nc1nc(C)c(-c2nc(N3CCCC(O)C3)no2)s1 (stereo not given) (10 µM)
inactive: IRAK3 = 0 | JAK1 = 0 | LCK 0 | LIMK1 = 0 | LIMK2 = 0 | LMTK2 = 0 | LYN 0 | MAP2K1 = 0 | MAP2K2 = 0 | MAP4K2 = 0
